Values quoted from earlier work, collected in patent publication US20200390726A1, “Compositions for Improved Neuroprotective Effects and Methods of Making Same” (Guardion Health Sciences, LLC, priority 2019, published 2020).
For at least one compound, name, drawing or mass did not settle the structure.

Tested on: glaucoma patients
Conditions: literature, anthocyanins 50 mg daily, PEA 600 mg per day, Mirtogenol dose not given

Structure (SMILES)	effect on intraocular pressure (IOP) (forskolin 1% eye drops)	effect on visual field (citicoline 500 to 1,000 mg daily)
C=C[C@@]1(C)CC(=O)[C@]2(O)[C@@]3(C)[C@@H](O)CCC(C)(C)[C@@H]3[C@H](O)[C@H](OC(C)=O)[C@@]2(C)O1 [Forskolin]	significant reduction in IOP	–
C[N+](C)(C)CCOP(=O)(O)OP(=O)([O-])OC[C@H]1O[C@@H](n2ccc(N)nc2=O)[C@H](O)[C@@H]1O [Citicoline, cytidine-5′-diphosphocholine]	–	slowing of visual field deterioration
